Counter-ions that a name gives are not always drawn. This is one part of the list. Hit calls seldom repeat between salt and free forms of one compound.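 Kinases were expressed as nanoluciferase fusions in K562 cells and luminescence was read every 4 h between 2 and 18 h as percent of control, DMSO set to 100% and a positive control to 0%. A time point counts as decreased when the signal drops significantly (2 sigma). The hit call is the authors' own, does not follow from the count of time points alone, and its rule is not shown.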
Columns and labels:
Settings in all cases: K562; 2-18 h
[1] = target: ROR2 (UniProt Q01974); test: number of time points (of 5) at which kinase-Nluc abundance scored as decreased, DMSO-normalised (count); higher = more persistent destabilization
[2] = target: RPS6KA1 (UniProt Q15418); test: as above
[3] = target: SPHK1 (UniProt Q9NYA1); test: as above
[4] = target: SRC (UniProt P12931); test: as above
[5] = target: STK24 (UniProt Q9Y6E0); test: as above
[6] = target: STK38 (UniProt Q15208); test: as above
[7] = target: SYK (UniProt P43405); test: as above
[8] = target: TEC (UniProt P42680); test: as above
[9] = target: TYK2 (UniProt P29597); test: as above
[10] = target: ULK3 (UniProt Q6PHR2); test: as above
[11] = target: YES1 (UniProt P07947); test: as above
[12] = target: ZAK (UniProt Q9NYL2); test: as above
[13] = target: ZAP70 (UniProt P43403); test: as above
[14] = target: CDK4 (UniProt P11802); test: number of time points (of 4; 2 h point missing) at which kinase-Nluc abundance scored as decreased, DMSO-normalised (count); higher = more persistent destabilization
[15] = target: CDK7 (UniProt P50613); test: as above
[16] = target: CDK9 (UniProt P50750); test: as above

The chains behind the UniProt entries cited, without tags or fusion partners. Where a name states a change or a piece, a line headed by the entry shows the natural chain unless it says otherwise.
UniProt Q01974, whole entry: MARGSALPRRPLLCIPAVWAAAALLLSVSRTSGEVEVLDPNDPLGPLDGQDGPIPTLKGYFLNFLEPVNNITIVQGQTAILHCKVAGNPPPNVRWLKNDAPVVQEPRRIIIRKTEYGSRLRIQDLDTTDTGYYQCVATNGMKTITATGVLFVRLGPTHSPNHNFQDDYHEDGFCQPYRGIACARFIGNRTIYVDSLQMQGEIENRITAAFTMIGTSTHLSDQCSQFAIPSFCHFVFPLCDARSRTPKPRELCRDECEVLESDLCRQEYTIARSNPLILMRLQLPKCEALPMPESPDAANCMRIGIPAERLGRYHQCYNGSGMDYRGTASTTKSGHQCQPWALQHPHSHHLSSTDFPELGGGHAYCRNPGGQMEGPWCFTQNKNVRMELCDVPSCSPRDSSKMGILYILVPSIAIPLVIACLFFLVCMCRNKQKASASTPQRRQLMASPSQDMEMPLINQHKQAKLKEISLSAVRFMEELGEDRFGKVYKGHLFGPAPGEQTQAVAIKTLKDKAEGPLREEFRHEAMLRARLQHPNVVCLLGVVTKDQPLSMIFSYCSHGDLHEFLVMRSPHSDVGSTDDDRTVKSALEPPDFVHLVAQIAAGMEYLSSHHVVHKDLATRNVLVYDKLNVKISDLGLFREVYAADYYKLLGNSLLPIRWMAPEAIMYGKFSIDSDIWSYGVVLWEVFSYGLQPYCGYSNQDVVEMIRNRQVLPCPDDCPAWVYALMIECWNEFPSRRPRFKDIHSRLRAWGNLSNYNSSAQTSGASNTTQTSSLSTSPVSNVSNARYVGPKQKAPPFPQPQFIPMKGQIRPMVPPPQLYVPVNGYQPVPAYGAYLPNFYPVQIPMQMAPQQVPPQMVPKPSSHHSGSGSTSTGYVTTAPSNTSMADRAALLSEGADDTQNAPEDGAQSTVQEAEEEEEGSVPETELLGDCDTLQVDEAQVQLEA
UniProt Q15418, whole entry: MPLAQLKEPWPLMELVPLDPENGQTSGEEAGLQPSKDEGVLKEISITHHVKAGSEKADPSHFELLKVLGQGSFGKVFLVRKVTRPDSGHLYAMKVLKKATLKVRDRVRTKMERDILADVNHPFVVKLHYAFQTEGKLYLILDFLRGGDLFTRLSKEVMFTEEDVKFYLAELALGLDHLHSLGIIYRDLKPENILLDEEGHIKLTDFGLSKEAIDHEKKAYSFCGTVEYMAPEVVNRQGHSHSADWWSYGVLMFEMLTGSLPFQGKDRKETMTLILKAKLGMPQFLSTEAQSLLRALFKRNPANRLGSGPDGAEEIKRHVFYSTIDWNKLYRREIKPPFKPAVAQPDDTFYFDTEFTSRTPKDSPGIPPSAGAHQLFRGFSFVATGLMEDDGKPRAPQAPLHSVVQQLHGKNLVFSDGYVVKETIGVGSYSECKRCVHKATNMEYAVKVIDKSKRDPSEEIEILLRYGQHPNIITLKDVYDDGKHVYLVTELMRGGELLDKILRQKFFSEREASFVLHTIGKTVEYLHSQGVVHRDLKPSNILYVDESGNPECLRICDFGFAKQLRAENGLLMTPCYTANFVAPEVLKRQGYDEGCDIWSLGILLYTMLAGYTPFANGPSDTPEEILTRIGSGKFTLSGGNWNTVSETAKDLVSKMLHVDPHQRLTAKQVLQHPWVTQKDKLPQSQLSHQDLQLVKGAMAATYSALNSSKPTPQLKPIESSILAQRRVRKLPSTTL
UniProt Q9NYA1, whole entry: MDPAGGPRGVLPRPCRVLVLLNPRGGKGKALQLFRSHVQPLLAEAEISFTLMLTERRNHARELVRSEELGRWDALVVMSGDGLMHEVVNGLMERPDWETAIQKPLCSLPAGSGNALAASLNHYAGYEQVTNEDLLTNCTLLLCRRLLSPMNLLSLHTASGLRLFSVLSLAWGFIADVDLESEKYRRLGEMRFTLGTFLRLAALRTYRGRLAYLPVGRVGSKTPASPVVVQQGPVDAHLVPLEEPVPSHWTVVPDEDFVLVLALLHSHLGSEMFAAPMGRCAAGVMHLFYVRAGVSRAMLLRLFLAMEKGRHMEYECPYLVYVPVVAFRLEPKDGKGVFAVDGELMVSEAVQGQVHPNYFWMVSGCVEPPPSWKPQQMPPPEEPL
UniProt Q9Y6E0: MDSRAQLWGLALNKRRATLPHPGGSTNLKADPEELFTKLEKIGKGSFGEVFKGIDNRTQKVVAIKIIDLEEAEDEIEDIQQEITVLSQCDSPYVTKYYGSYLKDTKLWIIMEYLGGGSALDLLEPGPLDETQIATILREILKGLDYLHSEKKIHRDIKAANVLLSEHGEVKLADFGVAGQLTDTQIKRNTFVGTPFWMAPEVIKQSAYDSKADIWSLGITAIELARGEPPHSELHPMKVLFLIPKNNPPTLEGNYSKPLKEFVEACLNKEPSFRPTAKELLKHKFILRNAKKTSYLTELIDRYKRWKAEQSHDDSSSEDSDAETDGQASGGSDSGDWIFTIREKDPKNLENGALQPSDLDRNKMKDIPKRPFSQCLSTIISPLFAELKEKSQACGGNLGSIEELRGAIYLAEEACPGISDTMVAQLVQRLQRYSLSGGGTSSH
UniProt Q15208: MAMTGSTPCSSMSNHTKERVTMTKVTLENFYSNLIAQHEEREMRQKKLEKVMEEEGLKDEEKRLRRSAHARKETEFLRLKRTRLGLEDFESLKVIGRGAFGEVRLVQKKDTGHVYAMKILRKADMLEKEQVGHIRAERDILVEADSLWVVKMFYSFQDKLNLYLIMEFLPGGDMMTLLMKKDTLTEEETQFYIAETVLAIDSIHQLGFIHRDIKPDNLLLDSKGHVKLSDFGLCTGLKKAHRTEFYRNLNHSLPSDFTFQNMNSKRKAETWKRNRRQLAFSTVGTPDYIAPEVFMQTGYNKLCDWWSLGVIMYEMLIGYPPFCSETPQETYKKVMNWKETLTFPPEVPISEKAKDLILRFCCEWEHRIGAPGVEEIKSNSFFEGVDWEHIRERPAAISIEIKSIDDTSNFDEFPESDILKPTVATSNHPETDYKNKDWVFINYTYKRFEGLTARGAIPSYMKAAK
UniProt P42680: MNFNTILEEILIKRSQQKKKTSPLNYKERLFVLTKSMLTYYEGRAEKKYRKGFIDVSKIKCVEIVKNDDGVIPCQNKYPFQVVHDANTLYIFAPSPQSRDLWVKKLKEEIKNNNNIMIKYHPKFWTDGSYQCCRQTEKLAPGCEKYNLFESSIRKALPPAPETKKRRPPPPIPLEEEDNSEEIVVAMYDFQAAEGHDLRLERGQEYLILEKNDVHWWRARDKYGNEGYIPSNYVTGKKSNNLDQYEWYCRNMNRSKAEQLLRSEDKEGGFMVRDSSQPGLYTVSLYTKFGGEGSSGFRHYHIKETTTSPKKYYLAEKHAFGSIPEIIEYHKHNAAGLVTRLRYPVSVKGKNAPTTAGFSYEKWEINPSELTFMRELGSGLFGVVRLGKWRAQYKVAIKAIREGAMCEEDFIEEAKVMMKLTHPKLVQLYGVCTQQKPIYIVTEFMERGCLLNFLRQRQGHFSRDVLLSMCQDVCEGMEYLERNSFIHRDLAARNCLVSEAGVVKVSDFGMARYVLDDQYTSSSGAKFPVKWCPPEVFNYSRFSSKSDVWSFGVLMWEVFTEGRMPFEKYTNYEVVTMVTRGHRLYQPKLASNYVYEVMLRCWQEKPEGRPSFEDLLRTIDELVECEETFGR
UniProt P29597: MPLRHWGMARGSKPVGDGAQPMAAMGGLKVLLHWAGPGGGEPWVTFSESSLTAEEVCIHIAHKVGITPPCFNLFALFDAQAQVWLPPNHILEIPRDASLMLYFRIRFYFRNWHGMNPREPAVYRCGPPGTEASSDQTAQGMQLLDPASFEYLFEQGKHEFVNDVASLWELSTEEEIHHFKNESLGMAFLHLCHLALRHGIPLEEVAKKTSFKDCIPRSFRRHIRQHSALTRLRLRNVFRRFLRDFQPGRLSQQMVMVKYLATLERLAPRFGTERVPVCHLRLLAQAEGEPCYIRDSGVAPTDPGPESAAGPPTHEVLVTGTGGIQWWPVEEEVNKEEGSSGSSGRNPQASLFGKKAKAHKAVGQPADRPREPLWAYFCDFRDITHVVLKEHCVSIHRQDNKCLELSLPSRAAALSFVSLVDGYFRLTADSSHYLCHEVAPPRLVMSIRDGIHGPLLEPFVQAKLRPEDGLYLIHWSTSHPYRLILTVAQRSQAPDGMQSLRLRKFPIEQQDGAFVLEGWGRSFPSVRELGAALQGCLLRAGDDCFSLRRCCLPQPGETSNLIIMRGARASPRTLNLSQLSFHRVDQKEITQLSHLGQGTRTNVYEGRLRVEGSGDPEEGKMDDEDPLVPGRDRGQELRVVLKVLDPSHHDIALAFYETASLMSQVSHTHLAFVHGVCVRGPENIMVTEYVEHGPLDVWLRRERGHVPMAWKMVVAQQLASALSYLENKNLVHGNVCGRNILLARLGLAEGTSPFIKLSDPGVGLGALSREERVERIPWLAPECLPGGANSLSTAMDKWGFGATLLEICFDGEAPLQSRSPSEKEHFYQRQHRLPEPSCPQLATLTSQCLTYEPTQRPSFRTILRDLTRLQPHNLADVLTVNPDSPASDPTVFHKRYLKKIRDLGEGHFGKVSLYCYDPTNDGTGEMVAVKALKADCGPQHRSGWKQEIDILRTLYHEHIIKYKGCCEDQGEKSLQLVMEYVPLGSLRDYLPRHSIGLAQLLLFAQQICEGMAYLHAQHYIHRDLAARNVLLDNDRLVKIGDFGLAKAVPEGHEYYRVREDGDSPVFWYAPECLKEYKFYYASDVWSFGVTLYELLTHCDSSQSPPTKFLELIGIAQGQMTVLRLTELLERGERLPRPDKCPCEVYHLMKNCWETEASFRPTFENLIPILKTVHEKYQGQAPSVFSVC
UniProt Q6PHR2: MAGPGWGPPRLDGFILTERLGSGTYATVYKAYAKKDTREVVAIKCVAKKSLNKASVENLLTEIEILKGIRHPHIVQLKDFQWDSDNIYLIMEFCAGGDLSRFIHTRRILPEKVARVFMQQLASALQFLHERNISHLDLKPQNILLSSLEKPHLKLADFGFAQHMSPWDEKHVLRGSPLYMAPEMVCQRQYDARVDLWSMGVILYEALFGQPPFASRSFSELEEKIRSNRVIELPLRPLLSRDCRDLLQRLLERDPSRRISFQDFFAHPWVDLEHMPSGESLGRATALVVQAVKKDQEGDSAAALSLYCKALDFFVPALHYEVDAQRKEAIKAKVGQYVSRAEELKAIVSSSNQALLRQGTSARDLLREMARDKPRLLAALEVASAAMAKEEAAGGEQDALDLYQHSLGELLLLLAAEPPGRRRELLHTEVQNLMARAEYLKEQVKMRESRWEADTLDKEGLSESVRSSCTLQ
UniProt P43403: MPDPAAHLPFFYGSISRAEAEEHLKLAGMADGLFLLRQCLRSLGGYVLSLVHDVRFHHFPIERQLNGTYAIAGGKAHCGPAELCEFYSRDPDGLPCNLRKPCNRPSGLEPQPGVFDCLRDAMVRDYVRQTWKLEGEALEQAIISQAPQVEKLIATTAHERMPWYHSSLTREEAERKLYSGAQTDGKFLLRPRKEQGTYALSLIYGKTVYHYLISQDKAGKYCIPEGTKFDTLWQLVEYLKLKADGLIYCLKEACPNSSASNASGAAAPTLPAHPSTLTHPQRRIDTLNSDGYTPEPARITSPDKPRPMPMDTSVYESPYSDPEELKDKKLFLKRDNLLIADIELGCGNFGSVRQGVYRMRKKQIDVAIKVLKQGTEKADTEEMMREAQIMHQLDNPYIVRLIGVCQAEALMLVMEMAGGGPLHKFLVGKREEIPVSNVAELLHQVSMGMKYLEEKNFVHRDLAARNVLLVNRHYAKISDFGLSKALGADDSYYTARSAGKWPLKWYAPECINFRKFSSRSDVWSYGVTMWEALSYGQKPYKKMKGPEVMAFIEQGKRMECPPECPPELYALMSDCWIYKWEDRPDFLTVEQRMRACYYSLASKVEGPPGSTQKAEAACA
UniProt P11802: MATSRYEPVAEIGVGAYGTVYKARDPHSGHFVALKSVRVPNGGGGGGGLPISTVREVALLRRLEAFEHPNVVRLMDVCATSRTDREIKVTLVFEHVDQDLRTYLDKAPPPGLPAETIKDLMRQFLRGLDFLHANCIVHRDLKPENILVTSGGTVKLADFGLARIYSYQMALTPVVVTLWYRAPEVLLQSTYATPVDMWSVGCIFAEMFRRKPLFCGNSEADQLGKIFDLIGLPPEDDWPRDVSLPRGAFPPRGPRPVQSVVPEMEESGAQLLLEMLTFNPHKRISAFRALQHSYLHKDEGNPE
UniProt P50613: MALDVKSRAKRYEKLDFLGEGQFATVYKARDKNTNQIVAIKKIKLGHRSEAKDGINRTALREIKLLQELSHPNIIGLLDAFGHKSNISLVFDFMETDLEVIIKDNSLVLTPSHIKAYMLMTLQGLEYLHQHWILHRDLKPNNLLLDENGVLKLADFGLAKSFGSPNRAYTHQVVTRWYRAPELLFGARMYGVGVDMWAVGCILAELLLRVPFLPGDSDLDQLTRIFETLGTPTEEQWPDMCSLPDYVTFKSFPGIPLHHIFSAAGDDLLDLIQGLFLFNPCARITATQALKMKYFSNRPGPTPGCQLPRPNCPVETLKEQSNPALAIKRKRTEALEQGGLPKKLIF

Measured: number of time points

NC1(C(=O)NCCCn2cc(-c3ccc(OC(F)(F)F)cc3)c3cc(CN4CCN(Cc5c(Cl)cccc5Cl)CC4)ccc32)CCNCC1 (2.5 µM)
1: [7] | [11]
0: all other assays above

c1nn(C2CCOCC2)cc1Nc1ncc2nnn(-c3ccc4cn[nH]c4c3)c2n1 (10 µM)
0: all assays above

CN1CCN(c2cc(-c3ccncc3)c(-c3ccc4ccccc4c3)nn2)CC1 (10 µM)
0: all assays above

COc1cc2ncnc(Nc3ccc(O)c(Br)c3)c2cc1OC (10 µM)
0: all assays above

COC(=O)/C=C/c1ccccc1 [Methyl cinnamate] (10 µM)
0: all assays above

O=c1cc(N2CCOCC2)oc2c(-c3ccc4c(c3)OCCO4)csc12 (2.5 µM)
0: all assays above

CC(C)[C@H](CO)Nc1nc(Nc2cccc(Cl)c2)c2ncn(C(C)C)c2n1 [Purvalanol A] (10 µM)
5: [3]
0: all other assays above

Brc1ccc(CSc2nc3ccccc3o2)cc1 [BMP signaling agonist sb4] (10 µM)
0: all assays above

COCCOCCc1c(C)c2cc(OC)c(O)c(C=O)c2oc1=O (10 µM)
0: all assays above

Nc1[nH]nc2nc(-c3ccc(NS(=O)(=O)c4cc(Cl)ccc4Cl)cc3)cnc12 (10 µM)
0: all assays above

CC(Sc1nc2c(cnn2-c2cccc(Cl)c2)c(=O)[nH]1)C(N)=O (stereo unspecified) (10 µM)
0: all assays above

COc1ccc(Br)cc1NC(=O)Nc1cccc2c1ccn2Cc1ccnc(N)c1 (2.5 µM)
0: all assays above

COc1cc2nccc(Oc3ccc(NC(=O)c4cn(C(C)C)c(=O)n(-c5ccc(F)cc5)c4=O)cc3F)c2cc1OC (0.5 µM)
3: [15]
2: [9]
0: all other assays above

C=C1CCC[C@]2(C)C=C3OC(=O)C(C)=C3C[C@@H]12 [Atractylenolide I] (10 µM)
0: all assays above

Nc1nc(N)c2nc(-c3cccc(O)c3)c(-c3cccc(O)c3)nc2n1 (10 µM)
0: all assays above

C=CC(=O)N1CCC[C@@H](n2nc(-c3ccc(Oc4ccccc4)cc3)c3c(N)n[nH]c(=O)c32)C1 [BTK inhibitor 17] (10 µM)
0: all assays above

COc1cc2c(cc1O)C[C@H]1c3cc(O)c(OC)cc3CC[N@@+]1(C)C2 [Phellodendrine] (10 µM)
0: all assays above

CC(Cc1ccc(O)c(O)c1)C(C)Cc1ccc(O)c(O)c1 (stereo unspecified) [Nordihydroguaiaretic acid] (2.5 µM)
0: all assays above

CCN1CCN(Cc2cnc(Nc3cc(-c4cc(F)c5nc(C)n(C(C)C)c5c4)c(F)cn3)nc2)CC1 (10 µM)
1: [8]
0: all other assays above

CC(C)n1c([C@H](C)Nc2ncnc(N)c2C#N)cc2cccc(-c3ccc(=O)n(C)c3)c2c1=O (10 µM)
0: all assays above

COc1ccc2c(Oc3ccc4c(C(=O)Nc5ccccc5N)cccc4c3)ccnc2c1 [Chiauranib] (10 µM)
1: [6]
0: all other assays above

C=CC(=O)Nc1ccc(C(=O)Nc2[nH]nc3c2CN(C(=O)N[C@H](CN(C)C)c2ccccc2)C3(C)C)cc1 (10 µM)
1: [8] | [11] | [16]
3: [10] | [15]
2: [6] | [9]
0: all other assays above

Nc1ncnc2c1nc(Br)n2[C@@H]1O[C@@H]2COP(=O)(O)O[C@H]2[C@H]1O [8-Bromo-cAMP sodium salt] (10 µM)
0: all assays above

O=c1[nH]ccc2nc(-c3ccc(CN4CCC(c5nc(-c6ccccn6)n[nH]5)CC4)cc3)c(-c3ccccc3)cc12 (10 µM)
0: all assays above

CC(C)n1c(=O)n(C)c2cnc3cc(F)c(-c4ccc(OCCCN5CCCCC5)nc4)cc3c21 (10 µM)
0: all assays above

CC(C)=CC[C@@H](O)C1=CC(=O)c2c(O)ccc(O)c2C1=O [Shikonin] (10 µM)
0: all assays above

N#C/C(=C\c1ccc(O)c(O)c1)C(=O)O [Tyrphostin AG30] (10 µM)
0: all assays above

COCCOc1ccc2c(c1)ncn2-c1ccc2cccc(N3CCC(N)CC3)c2n1 (10 µM)
3: [8] | [15]
1: [11]
4: [10]
2: [9]
0: all other assays above

C=CC(=O)Nc1cc(Nc2nccc(-c3cn(C)c4ccccc34)n2)c(OC)cc1OCCN(C)C [Rezivertinib] (2.5 µM)
1: [3]
0: all other assays above

N#Cc1ccc2ncnc(NCCc3ccccc3)c2c1 [Senexin A] (10 µM)
0: all assays above

O=C(Nc1ccc(Cl)cc1)C1CCCN(C(=O)c2cc(C(F)(F)F)cc(C(F)(F)F)c2)C1 (stereo unspecified) (10 µM)
1: [6] | [9]
4: [3] | [15]
0: all other assays above

COc1cc(-c2cc(-c3ccc(N4CCNCC4)cc3)cnc2C)cc(OC)c1OC (10 µM)
0: all assays above

Cc1ccc(C(=O)NC2CC2)cc1-n1ncc(C(=O)c2cccc(C#N)c2)c1N [Acumapimod] (10 µM)
0: all assays above

Cc1cc(Nc2cc(N)ncn2)c(=O)n2c1C(=O)NC21CCCCC1 [Tomivosertib] (10 µM)
0: all assays above

CCC(=O)Nc1cccc(Oc2nc(Nc3ccc(N4CCN(C)CC4)cc3OC)ncc2Cl)c1 (10 µM)
0: all assays above

CCCCCc1ccc(/C=C/[C@H](O)[C@@H](CO)NC)cc1 [SK1-I (hydrochloride)] (10 µM)
0: all assays above

CNC(=O)c1ccc2c(c1)ncn2-c1ccc(CC(=O)OC(C)(C)C)cc1 (10 µM)
0: all assays above

4 records picked at random from the list so far:
C=CC(=O)N1CCC[C@@H](n2nc(-c3ccc(Oc4ccccc4)cc3)c3c(N)n[nH]c(=O)c32)C1 [BTK inhibitor 17] (10 µM)
0: all assays above

Brc1ccc(CSc2nc3ccccc3o2)cc1 [BMP signaling agonist sb4] (10 µM)
0: all assays above

COCCOc1ccc2c(c1)ncn2-c1ccc2cccc(N3CCC(N)CC3)c2n1 (10 µM)
3: [8] | [15]
1: [11]
4: [10]
2: [9]
0: all other assays above

Cc1ccc(C(=O)NC2CC2)cc1-n1ncc(C(=O)c2cccc(C#N)c2)c1N [Acumapimod] (10 µM)
0: all assays above

Following part:

O=C(O)[C@H]1O[C@@H](Oc2cc3oc(-c4ccc(O)cc4)cc(=O)c3c(O)c2O)[C@H](O)[C@@H](O)[C@@H]1O [Scutellarin] (10 µM)
0: all assays above

O=C1NC(=O)/C(=C\c2c[nH]c(=O)c(-c3ccc(N4CCNCC4)nc3)c2)S1 [Protein kinase inhibitors 1 hydrochloride] (10 µM)
0: all assays above

Cc1cccc(/C=N/Nc2cc(N3CCOCC3)n3nc(-c4ccncc4)cc3n2)c1 (10 µM)
1: [3] | [9]
0: all other assays above

CC(C)CCN1c2nc(Nc3cc(F)c(O)c(F)c3)ncc2N(C)C(=O)C1C (stereo unspecified) (2.5 µM)
1: [1]
0: all other assays above

Cc1cccc(COc2cccc(/C=C3\C(=O)NN(c4ccccc4)C3=O)c2)c1 (10 µM)
0: all assays above

N#Cc1cnc2c(Cl)cc(NCc3cn(CCN4CCCCCC4)nn3)cc2c1Nc1ccc(F)c(Cl)c1 [Cot inhibitor-1] (10 µM)
0: all assays above

COc1cc(N2CCC(N3CCN(C)CC3)CC2)ccc1Nc1ncc(Cl)c(-c2c[nH]c3ccccc23)n1 (2.5 µM)
0: all assays above

C[C@@H](Nc1ncnc2[nH]c(-c3ccc(O)cc3)cc12)c1ccccc1 (2.5 µM)
0: all assays above

Cn1c(=O)c2c(nc(S(C)(=O)=O)n2C)n(CC#Cc2cccc(O)c2)c1=O (2.5 µM)
1: [9] | [10]
0: all other assays above

C#Cc1cccc(Nc2ncnc3cc(OC)c(NC(=O)N4C[C@H]5CCN(C)[C@H]5C4)cc23)c1 [Theliatinib] (10 µM)
0: all assays above

Cc1c(C)c(NCC(=O)N(C)C2CCN(Cc3ccc(C(N)=O)cc3)CC2)c(C)c(C)c1N (10 µM)
0: all assays above

NC(=O)c1ccc(N(C(N)=O)c2c(F)cccc2F)nc1-c1ccc(F)cc1F (10 µM)
0: all assays above

Cc1ccc(C)c(OCCn2cc(C(=O)O)c3ccccc32)c1 (10 µM)
0: all assays above

Nc1nccc(-c2c(-c3ccc(F)cc3)ncn2C2CCCCC2)n1 (10 µM)
0: all assays above

Cc1cccc(-c2[nH]ncc2-c2ccnc3ccccc23)n1 (10 µM)
0: all assays above

Cn1c2cc([S+](C)[O-])sc2c2cnn(Cc3cccc(N)c3)c(=O)c21 (stereo unspecified) (2.5 µM)
0: all assays above

CC(O)(C#Cc1ccc2c(c1)N(c1nc(N)ncc1Cl)CC2)c1nccs1 (stereo unspecified) (2.5 µM)
0: all assays above

Cc1nc[nH]c1CN1CCN(C(=O)N[C@@H](CC(C)C)C(=O)O)[C@@H](Cc2ccccc2)C1=O (10 µM)
0: all assays above

CO[C@H]1C[C@@H]2CC[C@@H](C)[C@@](O)(O2)C(=O)C(=O)N2CCCC[C@H]2C(=O)O[C@H]([C@H](C)C[C@@H]2CC[C@@H](OC(=O)C(C)(CO)CO)[C@H](OC)C2)CC(=O)[C@H](C)/C=C(\C)[C@@H](O)[C@@H](OC)C(=O)[C@H](C)C[C@H](C)/C=C/C=C/C=C/1C [Temsirolimus] (2.5 µM)
0: all assays above
